Measurements as given in publication PMC4244159.
Results are given in words; binding and its absence hold for the method and conditions named. In cells and extracts the contact can be indirect. Some results given as binding are weak or reduced against the parent protein; the word gives no strength.

Protein sequences, listed by entry. Tags and fused reporters are not part of them.
UniProt Q15796: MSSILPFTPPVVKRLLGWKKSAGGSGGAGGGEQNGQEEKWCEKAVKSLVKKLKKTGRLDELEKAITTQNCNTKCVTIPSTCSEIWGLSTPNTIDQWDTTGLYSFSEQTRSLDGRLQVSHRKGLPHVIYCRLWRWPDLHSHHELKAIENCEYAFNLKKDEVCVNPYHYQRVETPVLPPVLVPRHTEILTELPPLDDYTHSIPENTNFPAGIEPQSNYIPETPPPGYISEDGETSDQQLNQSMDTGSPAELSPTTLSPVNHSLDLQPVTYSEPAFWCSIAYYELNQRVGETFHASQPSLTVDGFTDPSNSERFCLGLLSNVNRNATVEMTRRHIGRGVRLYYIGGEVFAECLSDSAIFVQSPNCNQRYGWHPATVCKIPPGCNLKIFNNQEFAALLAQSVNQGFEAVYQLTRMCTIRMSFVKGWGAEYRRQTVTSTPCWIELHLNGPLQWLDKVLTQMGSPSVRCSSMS
UniProt Q13485: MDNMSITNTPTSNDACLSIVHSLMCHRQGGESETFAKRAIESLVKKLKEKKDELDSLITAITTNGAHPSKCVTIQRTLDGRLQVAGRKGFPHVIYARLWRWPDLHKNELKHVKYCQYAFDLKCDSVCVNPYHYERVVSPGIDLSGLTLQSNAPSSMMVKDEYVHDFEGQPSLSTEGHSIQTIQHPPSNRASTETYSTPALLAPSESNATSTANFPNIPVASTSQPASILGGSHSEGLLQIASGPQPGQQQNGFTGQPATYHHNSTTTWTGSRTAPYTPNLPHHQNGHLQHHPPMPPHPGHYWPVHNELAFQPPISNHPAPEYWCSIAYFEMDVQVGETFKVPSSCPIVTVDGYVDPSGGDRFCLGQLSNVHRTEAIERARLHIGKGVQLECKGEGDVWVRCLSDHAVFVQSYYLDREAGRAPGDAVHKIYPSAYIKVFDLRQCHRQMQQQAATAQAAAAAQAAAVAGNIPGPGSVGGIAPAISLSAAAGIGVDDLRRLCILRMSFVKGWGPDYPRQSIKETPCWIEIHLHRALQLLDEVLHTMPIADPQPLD
UniProt P84022: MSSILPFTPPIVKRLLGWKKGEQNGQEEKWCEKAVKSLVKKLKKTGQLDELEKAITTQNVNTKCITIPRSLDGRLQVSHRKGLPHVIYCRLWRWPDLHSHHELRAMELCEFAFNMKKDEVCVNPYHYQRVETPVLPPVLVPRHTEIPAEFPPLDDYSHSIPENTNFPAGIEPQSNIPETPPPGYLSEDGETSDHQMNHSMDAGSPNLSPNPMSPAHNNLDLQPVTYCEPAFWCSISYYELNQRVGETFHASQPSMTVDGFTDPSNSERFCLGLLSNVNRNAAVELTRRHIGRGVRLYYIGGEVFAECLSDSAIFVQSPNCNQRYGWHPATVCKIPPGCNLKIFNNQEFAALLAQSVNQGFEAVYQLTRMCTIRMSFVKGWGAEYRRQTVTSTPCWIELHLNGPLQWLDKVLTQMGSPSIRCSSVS
UniProt P97471: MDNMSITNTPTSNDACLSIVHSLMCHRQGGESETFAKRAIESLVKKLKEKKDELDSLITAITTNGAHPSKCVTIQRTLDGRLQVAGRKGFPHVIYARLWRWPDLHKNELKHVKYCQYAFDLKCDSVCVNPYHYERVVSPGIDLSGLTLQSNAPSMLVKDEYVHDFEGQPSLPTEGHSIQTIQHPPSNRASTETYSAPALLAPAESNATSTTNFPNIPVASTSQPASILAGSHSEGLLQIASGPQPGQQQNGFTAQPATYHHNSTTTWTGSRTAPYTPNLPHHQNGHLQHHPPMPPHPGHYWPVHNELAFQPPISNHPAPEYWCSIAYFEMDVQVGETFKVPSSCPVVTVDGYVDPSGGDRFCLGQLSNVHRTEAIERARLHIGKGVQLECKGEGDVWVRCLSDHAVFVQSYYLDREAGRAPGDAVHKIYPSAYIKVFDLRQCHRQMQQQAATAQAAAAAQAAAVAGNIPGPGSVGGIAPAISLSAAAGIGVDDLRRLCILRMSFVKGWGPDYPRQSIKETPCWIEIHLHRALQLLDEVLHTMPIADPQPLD
UniProt Q12778: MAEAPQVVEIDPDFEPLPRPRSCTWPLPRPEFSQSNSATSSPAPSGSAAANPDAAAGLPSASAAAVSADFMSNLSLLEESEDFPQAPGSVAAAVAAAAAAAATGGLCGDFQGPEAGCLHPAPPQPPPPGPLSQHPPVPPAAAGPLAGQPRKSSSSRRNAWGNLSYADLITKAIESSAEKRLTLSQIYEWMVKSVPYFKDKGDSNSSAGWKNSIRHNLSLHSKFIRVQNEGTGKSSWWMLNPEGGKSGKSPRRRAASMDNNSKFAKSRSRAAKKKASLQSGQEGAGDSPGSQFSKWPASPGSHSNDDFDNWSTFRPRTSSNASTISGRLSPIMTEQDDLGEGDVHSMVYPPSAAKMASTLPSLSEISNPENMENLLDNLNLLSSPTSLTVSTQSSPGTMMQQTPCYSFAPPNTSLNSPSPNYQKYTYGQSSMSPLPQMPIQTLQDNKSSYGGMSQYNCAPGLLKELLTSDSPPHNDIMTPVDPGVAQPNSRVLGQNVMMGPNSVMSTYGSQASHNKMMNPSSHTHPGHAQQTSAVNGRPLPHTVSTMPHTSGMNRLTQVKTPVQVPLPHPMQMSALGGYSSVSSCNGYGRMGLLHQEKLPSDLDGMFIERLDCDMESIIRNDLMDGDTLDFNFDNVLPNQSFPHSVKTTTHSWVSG
UniProt Q9R1E0: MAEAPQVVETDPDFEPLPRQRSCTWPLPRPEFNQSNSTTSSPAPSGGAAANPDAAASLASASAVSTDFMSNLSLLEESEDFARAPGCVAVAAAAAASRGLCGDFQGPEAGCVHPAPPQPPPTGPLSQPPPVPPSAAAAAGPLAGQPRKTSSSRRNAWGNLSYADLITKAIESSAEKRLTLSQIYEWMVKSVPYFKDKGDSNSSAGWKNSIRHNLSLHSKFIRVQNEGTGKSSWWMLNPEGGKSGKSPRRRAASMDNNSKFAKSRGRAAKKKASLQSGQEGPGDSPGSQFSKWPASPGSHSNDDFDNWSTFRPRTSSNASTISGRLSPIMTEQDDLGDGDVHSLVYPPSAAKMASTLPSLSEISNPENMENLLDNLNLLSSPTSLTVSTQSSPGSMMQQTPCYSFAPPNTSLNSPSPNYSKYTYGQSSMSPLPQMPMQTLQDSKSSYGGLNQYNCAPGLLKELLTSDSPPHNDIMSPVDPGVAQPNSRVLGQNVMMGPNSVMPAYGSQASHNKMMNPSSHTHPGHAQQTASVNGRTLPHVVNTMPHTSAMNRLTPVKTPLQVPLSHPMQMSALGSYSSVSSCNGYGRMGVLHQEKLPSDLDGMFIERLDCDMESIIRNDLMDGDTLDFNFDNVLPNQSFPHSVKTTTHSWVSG

Legend:
[1] = target: GST-SMAD2 (UniProt Q15796); experiment: pull-down; GST or GST-SMAD2/3/4 on glutathione sepharose 4B beads; 20 µl 35S-labeled in vitro transcribed and translated protein in 400 µl HND buffer (10 mg/ml BSA, 20 mM Hepes pH 7.8, 50 mM NaCl, 5 mM DTT, 0.1% NP-40), overnight at 4°C; washed with HND buffer and 0.1% NP-40 in PBS; 10% SDS-PAGE; only the target purified
[2] = target: GST-SMAD4 (UniProt Q13485); experiment: as above
[3] = target: GST-SMAD3 (UniProt P84022); experiment: as above
[4] = target: endogenous SMAD4 in LβT2 gonadotrope cells (mouse (endogenous in LβT2)) (UniProt P97471); experiment: co-IP; endogenous proteins; 400 µg pre-cleared nuclear extract of LβT2 cells treated with or without 10 ng/mL activin for 2 h; SMAD4 or SMAD2/3 antibody or mouse IgG, Protein A magnetic beads, overnight at 4°C; Western blot for SMAD4, SMAD2/3 and FOXO1

| binding [1] | binding [2] | binding [3] | binding [4] | Substance |
| --- | --- | --- | --- | --- |
| no binding | binds | binds |  | FOXO1 (human, wild type), ^35S-labeled, in vitro transcribed and translated (from UniProt Q12778 1-655) |
|  |  |  | binds | endogenous FOXO1 in LβT2 gonadotrope cells (from UniProt Q9R1E0 1-652) |
